COc1ccc2cc([C@H](C)C(=O)O)ccc2c1
Details | solubility (mole fraction)
in acetone, 278.25 K | 0.000946
in acetone, 283.6 K | 0.00137
in acetone, 288.3 K | 0.00164
in acetone, 293.05 K | 0.00216
in acetone, 298.45 K | 0.00281
in acetone, 303.2 K | 0.00362
in acetone, 308.7 K | 0.00459
in acetone, 313.45 K | 0.00592
in acetone, 318.1 K | 0.00721
in acetone, 320.15 K | 0.0084
in ethanol, 278.15 K | 0.00487
in ethanol, 283.7 K | 0.00607
in ethanol, 288.15 K | 0.00757
in ethanol, 293.1 K | 0.00923
in ethanol, 298.5 K | 0.0118
in ethanol, 303.25 K | 0.0143
in ethanol, 308.65 K | 0.0172
in ethanol, 313.4 K | 0.0212
in ethanol, 318.8 K | 0.0246
in ethanol, 320.15 K | 0.0279
in ethyl acetate, 278.2 K | 0.0145
in ethyl acetate, 283.45 K | 0.0172
in ethyl acetate, 288.15 K | 0.0196
in ethyl acetate, 293.1 K | 0.0229
in ethyl acetate, 298.5 K | 0.0271
in ethyl acetate, 303.25 K | 0.0307
in ethyl acetate, 308.65 K | 0.036
in ethyl acetate, 313.7 K | 0.0415
in ethyl acetate, 318.7 K | 0.0476
in ethyl acetate, 320.1 K | 0.0499
in isopropanol, 278.15 K | 0.00523
in isopropanol, 283.6 K | 0.00664
in isopropanol, 288.35 K | 0.00803
in isopropanol, 293.75 K | 0.00975
in isopropanol, 298.5 K | 0.0118
in isopropanol, 303.25 K | 0.0143
in isopropanol, 308.65 K | 0.0177
in isopropanol, 313.4 K | 0.0212
in isopropanol, 318.8 K | 0.0259
in isopropanol, 320.15 K | 0.0272
in methanol, 278.2 K | 0.00612
in methanol, 283.6 K | 0.00729
in methanol, 288.15 K | 0.00875
in methanol, 293.1 K | 0.0105
in methanol, 298.15 K | 0.0126
in methanol, 303.9 K | 0.0154
in methanol, 308.65 K | 0.0184
in methanol, 313.4 K | 0.0216
in methanol, 318.8 K | 0.0255
in methanol, 320.15 K | 0.0273
